Results of single-concentration screens

Amino acid sequences for entries named in this document (tags omitted). Residues count along the entry.
UniProt Q4DA54, 1-478: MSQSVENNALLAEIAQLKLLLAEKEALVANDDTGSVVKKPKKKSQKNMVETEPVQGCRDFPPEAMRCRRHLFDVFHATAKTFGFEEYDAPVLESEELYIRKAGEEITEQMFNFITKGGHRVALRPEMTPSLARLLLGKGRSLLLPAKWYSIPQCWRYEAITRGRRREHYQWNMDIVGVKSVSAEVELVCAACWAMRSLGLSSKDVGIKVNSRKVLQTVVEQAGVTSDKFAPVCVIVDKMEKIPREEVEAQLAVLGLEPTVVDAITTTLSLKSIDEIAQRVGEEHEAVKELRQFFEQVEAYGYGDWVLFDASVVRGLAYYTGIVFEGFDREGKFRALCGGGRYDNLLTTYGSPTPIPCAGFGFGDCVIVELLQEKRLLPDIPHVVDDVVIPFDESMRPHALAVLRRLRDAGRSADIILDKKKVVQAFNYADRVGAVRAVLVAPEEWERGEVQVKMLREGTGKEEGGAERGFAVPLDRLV
UniProt A4I591, 1-473: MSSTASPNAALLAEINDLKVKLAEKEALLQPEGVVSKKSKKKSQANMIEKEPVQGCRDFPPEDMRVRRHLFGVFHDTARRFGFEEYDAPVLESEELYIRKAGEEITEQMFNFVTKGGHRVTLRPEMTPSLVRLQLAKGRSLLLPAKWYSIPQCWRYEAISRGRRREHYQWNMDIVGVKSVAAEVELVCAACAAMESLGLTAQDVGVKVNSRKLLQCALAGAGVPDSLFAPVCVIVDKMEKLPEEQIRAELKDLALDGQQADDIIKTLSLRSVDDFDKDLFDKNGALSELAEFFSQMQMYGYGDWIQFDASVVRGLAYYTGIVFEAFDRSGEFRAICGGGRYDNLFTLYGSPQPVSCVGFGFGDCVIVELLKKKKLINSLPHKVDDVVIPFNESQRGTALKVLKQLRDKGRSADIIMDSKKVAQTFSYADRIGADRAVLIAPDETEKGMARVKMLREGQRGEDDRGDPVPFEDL

A: 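Whole-parasite assay of Trypanosoma brucei over 72 hours; the read-out is not stated. Compounds at 30 µM. Higher reads as stronger inhibition (inferred: compounds with an IC50 in retests scored well above the rest). Values scatter widely below zero; nearly all retest evidence comes from the higher of the two concentrations used. Of about 64,000 compounds tested this way, about 940 (1.5%) reached 50% or more in at least one test.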
B: 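Histidine-tRNA ligase, Trypanosoma cruzi CL Brener (UniProt Q4DA54). Enzyme assay of histidyl-tRNA synthetase; the read-out is not stated. Tested at 30 µM. Direction is inferred from retests: higher values go with stronger inhibition. Of about 69,000 compounds tested this way, about 31 (0.045%) reached 50% or more in at least one test.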
C: 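Enzyme assay of histidyl-tRNA synthetase; the read-out is not stated. Target: Histidine-tRNA ligase, Leishmania infantum (UniProt A4I591). Concentration: 30 µM. Direction is inferred from retests: higher values go with stronger inhibition. The assay is labelled LdHisRS but filed under L. infantum. Size under these conditions: about 69,000 compounds, about 410 of them at 50% or above in at least one test.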

Values are the deposited “Percent Effect”, in %.
The record does not define 0% and 100%; most values in the screen are far below 50% and negative numbers occur (in some assays of this library far below -100).
The compounds are a random part of those screened.
A dash means the value is not listed here; it may have been measured.

SMILES | A | B | C
CC(C)N1CCO[C@H]2CN(Cc3cc[nH]n3)C[C@H]21 | - | 7.538% | 17.82%
Cc1cc(CN2CCN(C(=O)NCCc3csc(C)n3)CC2)on1 | 13.17% | 0.578% | 4.386%
COc1ccccc1N1CC(NC(=O)c2cc(C(C)C)nn2C)CC1=O (configuration not stated) | -10.47% | -42.29% | 4.196%
N#Cc1nccnc1NCCC1CCN(CC(F)(F)F)CC1 | -58.94% | 4.902% | 12.61%
CC(C)c1nn(C)c(N(C)C)c1CNCc1cccc(CN(C)C)c1.Cl | -45.98% | - | -
c1cnn(CC2CN(c3ncnc4[nH]ccc34)CCO2)c1 (configuration not stated) | 7.615% | 6.197% | 11.3%
[H][C@]1([C@H](O)c2ccc(NC(=O)c3cccnc3)cc2)COCC(=O)N1 | 10.47% | - | -
Cc1cc(N2CCOC(C(F)(F)F)C2)nc(-c2ccccc2O)n1 (configuration not stated) | -15.07% | 7.143% | 24.44%
Cc1noc(C)c1CN1CCn2c(CN3CCN(C)CC3)cnc2C1 | - | 3.922% | 14.29%
COCCc1noc(CN2CCCCC2Cn2cncn2)n1 (configuration not stated) | 6.58% | 4.142% | -3.571%
Cc1ccc(C)c(-n2cc(CN3CC[C@@H](O)C3)c(-c3ccccc3)n2)c1 | 100.3% | 17.92% | 20%
O=C(Nc1ccc(-n2cncn2)nc1)N(CC1CCOC1)C1CC1 (configuration not stated) | 1.611% | 7.027% | 21.92%
O=C(O)c1cnc(OCC2CC2)c(Br)c1 | - | 6.25% | 10.42%
Cc1ccc(-c2nc(CNS(=O)(=O)N(C)C)[nH]c2-c2ccccn2)cc1 | -19.21% | 6.186% | 17.14%
CCN1CCN(C(=O)c2cc(C(=O)OC)nn2-c2ccccc2)CC1 | -18.51% | 1.901% | 23.2%
Cc1cccc(CN2CCc3nnc(CN4CCCCC4)n3CC2)n1.O=C(O)C(F)(F)F.O=C(O)C(F)(F)F | -5.744% | - | -
COC(=O)c1cc(C2CC2)nc2c(C#N)cnn12 | -24.93% | -4.867% | 6.195%
CNC(=O)C1CN(Cc2cc(C)on2)CCN(C(C)=O)C1 (configuration not stated) | -6.406% | 6.977% | 12.77%
Cc1ccc(C(=O)N2CCC3(CC2)CC(NC(=O)C(C)C)CO3)cc1 (configuration not stated) | -22.34% | 5.825% | 9.709%
CC(C)(C)C(=O)N1CCN(C(=O)Nc2cnn(CC(F)F)c2)CC1 | -26.96% | -0.5236% | 0%
O=c1[nH][nH]cc1-c1ccnc(NCCc2cccc(O)c2)n1 | -16.62% | 11.3% | 14.29%
CCc1nc2n(n1)CC(Nc1nc(C)cc(N(C)C)n1)CC2 (configuration not stated) | 8.449% | 2.105% | 24.66%
CN(C)CCN1CCCC12CCN(Cc1nccn1C)CC2 | - | 7.735% | 11.71%
CN(C)C[C@H]1C[C@@H]2CN(C(=O)c3ccno3)C[C@@H]2O1 | - | 7.362% | 13.68%
CN(CCO)Cc1nnc(C2CCN(C(=O)c3cccnc3)CC2)n1C | 9.085% | 2.905% | 14.56%
Cc1cc2c(=O)n3c(nc2s1)CCN(C(=O)c1ccncc1)CC3 | 3.355% | 4.865% | 13.89%
COCCCNC(=O)c1cc(OC)c2ccoc2c1 | -91.97% | 1.754% | -3.571%
Cc1ccsc1C(=O)NCc1cccnc1N(C)CCc1ccccn1 | 0.7631% | 3.704% | 11.76%
COc1ccc(-n2cnnc2SCCC#N)cn1 | 38.13% | 2.905% | 20.39%
Cc1ccccc1CN1CCC2(COCc3cnc(N(C)C)nc32)C1 (configuration not stated) | - | 6.612% | 20.95%
COCCn1c(C(=O)NCC(C)C(=O)O)cc2ccccc21 (configuration not stated) | -11.09% | 8.021% | 12.04%
O=C(c1ccsc1)N1CC(c2nc(-c3ccc[nH]c3=O)no2)C1 | -37.78% | 1.031% | -5.217%
Cc1nc(C2CCCCN2S(C)(=O)=O)no1 (configuration not stated) | -5.789% | 6.202% | 12.77%
COc1cc(N2CCC3(CCCN(C(=O)c4cccnc4)C3)C2)ncn1 (configuration not stated) | - | -2.186% | 14.04%
c1ccc(OCc2n[nH]c3c2CN(CC2CC2)C3)nc1 | - | 9.091% | 12.82%
Cc1cccc(C(=O)NCc2ccccc2)n1 | -5.811% | 0.5747% | 12.17%
CCN1CCOCC12CCN(C(=O)Cc1cccs1)CC2 | - | 2.299% | 4%
CC(C)c1cc(N2CC[C@H](F)C2)n2nccc2n1 | 99.84% | 3.061% | 22.22%
CC(C)COC1CC2(CCN(Cc3nccn3C)CC2)C1.O=C(O)C(F)(F)F | -102.3% | - | -
Cc1nc(Oc2ccccc2F)sc1C(=O)O | -31.24% | 8% | 13.04%
COCCNC(=O)CSc1nnc(OC(C)C)s1 | -71.73% | 3.175% | 0%
Cc1ccoc1C(=O)NC1CCN(Cc2ccccc2C#N)CC1 | -0.9403% | 5.634% | 16.52%
O=C1CC(c2ccsc2)c2sc(C(=O)O)c(-c3ccccc3)c2N1 (configuration not stated) | 20.55% | 0.8264% | 19.05%
O=C(NC1CCCN(CCCc2ccccc2)C1)c1ccncc1 (configuration not stated) | 15.21% | 5.528% | 22.47%
COc1cc(CN(C)C(=O)NCc2nccs2)ccc1SC | 10.07% | 1.087% | 21.21%
CC1CN(C(=O)CN(Cc2ccccc2Br)C2CC2)CCO1 (configuration not stated) | 3.242% | -1.132% | 10.67%
CCC(=O)Nc1ccc2c(c1)C1(CCOCC1)CN2CCF.O=C(O)C(F)(F)F | -81.66% | - | -
O=C1NC2(CCNCC2)CC1c1ccncc1 (configuration not stated) | - | 4.082% | 5%
Cc1noc(C)c1CNc1ccc2nc(C3CC3)sc2c1 | -10.58% | 9.948% | 75.86%
O=C(CCOc1ccccc1Cl)N1CCN(c2cnccn2)CC1 | - | 8.262% | 15.38%
O=c1cc(CSc2nnc[nH]2)nc2sc3c(n12)CCCC3 | -2.327% | 8.911% | 18.48%
O[C@@H]1C[C@@H](c2nc(-c3ccc(OC(F)(F)F)cc3)no2)N(CC2CC2)C1 | -7.163% | 3.96% | 22.22%
[H][C@]12CN(Cc3ccccn3)CCN1C[C@H](c1ccccc1)[C@H]2C(=O)NC | -11.66% | - | -
Cc1cnn(CC2CCCCN2Cc2noc(C3CC3)n2)c1 (configuration not stated) | -30.62% | 7.985% | -0.8%
CCNC(=O)[C@@H]1C[C@H](n2cc(CC3CCCCC3)nn2)CN1 | -7.256% | 1.117% | 12.5%
[H][C@]12CCC(=O)N(c3ccccc3)[C@@]1([H])CCN2C(=O)c1cc(C)on1 | -24.17% | - | -
Cc1ccc(NC(=O)N(C)CC(O)COCCOC(C)C)c(Br)c1 (configuration not stated) | 1.405% | 4.813% | -0.5236%
CCCC(=O)NCCc1nc2cc(-c3ccc(OC)cc3)ncn2n1 | 18.52% | 2.273% | 9.859%
Cc1occc1C(=O)NCC(O)c1ccc(Cl)s1 (configuration not stated) | -54.2% | 5.882% | 15.08%
CC(C)CNC(=O)c1ccc(NC(=O)NC(C)(C)CO)cc1Cl | -17% | 5.172% | -2.679%
Cc1ccsc1C(=O)N1CCC2(CC1)C(=O)N(C)CCN2CC1CC1.O=C(O)C(F)(F)F | -13.8% | - | -

The first 4 entries again:

With CC(C)N1CCO[C@H]2CN(Cc3cc[nH]n3)C[C@H]21 the screen gave B: 7.538%; C: 17.82%.
With Cc1cc(CN2CCN(C(=O)NCCc3csc(C)n3)CC2)on1 the screen gave A: 13.17%; B: 0.578%; C: 4.386%.
With COc1ccccc1N1CC(NC(=O)c2cc(C(C)C)nn2C)CC1=O (configuration not stated) the screen gave A: -10.47%; B: -42.29%; C: 4.196%.
With N#Cc1nccnc1NCCC1CCN(CC(F)(F)F)CC1 the screen gave A: -58.94%; B: 4.902%; C: 12.61%.

The values are deposited in ChEMBL (CHEMBL3988442, “University of Dundee, Small-Polar-MMV Screening Library” (2021)).